No constants are given. Whether binding was seen depends on the method and setting. Some results given as binding are weak or reduced against the parent protein; the word gives no strength. Tags and fused reporters may be left off the sequences shown.
Target: T1, B7-H2 expressed on transfected 293 cells (UniProt O75144)
T1 sequence (looked up): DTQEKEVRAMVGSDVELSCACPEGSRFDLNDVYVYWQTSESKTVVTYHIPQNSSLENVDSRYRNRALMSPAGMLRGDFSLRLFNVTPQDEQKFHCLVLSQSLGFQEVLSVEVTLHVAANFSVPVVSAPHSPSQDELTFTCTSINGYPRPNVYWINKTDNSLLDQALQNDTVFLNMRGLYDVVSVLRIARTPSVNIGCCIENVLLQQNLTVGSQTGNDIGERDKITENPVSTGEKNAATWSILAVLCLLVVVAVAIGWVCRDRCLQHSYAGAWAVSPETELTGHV
Experiment: flow cytometry on transfected 293 cells

- binding: binds
B1: ICOSIg fusion protein (Fc fusion, UniProt Q9Y6W8 21-140, looked up)
chain: EINGSANYEMFIFHNGGVQILCKYPDIVQQFKMQLLKGGQILCDLTKTKGSGNTVSIKSLKFCHSQLSNNSVSFFLYNLDHSHANYYFCNLSIFDPPPFKVTLTGGYLHIYESQLCCQLK
notes: extracellular domain; Described as an analogous fusion protein prepared by a method similar to that for B7-H3Ig (extracellular domain fused to mouse IgG2a Fc); not shown: Fc constant region of mouse IgG2a

From patent publication US20120141504A1 (MAYO FOUNDATION FOR MEDICAL EDUCATION AND RESEARCH, published 2012)
